Results are given in words; binding and its absence hold for the method and conditions named. For some of these results: Binding seen in cells or lysates may run through a third protein. Some entries that bind do so weakly or less than the wild type. Tags and fused reporters may be left off the sequences shown.
T1: TCP4, full length, Gal4 fusion for yeast two-hybrid (Arabidopsis thaliana) (UniProt Q8LPR5)
T1 sequence: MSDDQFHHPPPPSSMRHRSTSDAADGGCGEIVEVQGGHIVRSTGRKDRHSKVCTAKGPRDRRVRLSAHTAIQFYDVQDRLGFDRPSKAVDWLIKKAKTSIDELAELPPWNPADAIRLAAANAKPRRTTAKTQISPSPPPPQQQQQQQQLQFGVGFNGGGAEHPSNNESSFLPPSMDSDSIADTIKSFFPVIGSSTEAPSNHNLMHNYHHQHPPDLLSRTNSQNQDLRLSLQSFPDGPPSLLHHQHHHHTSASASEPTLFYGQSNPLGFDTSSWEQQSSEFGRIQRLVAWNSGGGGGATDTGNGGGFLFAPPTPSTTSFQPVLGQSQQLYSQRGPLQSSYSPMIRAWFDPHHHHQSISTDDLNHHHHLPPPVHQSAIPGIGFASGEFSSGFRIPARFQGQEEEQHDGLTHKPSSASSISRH

T2: YFP^n-mTCP4 (full-length mTCP4 fused to the N-terminal half of enhanced YFP) (Arabidopsis thaliana) (UniProt Q8LPR5)
T2 sequence: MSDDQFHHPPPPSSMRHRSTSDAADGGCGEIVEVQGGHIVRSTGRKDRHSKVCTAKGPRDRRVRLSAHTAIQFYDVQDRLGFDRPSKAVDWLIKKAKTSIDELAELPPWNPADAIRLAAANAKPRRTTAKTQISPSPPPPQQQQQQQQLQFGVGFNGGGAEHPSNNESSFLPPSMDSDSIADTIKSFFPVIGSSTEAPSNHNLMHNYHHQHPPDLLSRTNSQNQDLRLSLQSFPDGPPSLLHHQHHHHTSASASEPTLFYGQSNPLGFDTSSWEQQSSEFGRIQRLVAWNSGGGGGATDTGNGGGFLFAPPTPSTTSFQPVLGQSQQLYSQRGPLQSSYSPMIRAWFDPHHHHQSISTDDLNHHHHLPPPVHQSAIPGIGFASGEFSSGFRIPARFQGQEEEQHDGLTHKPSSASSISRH


Legend:
[1] = molecular target: T1, TCP4, full length, Gal4 fusion for yeast two-hybrid (Arabidopsis thaliana); assay: two-hybrid; Gal4 DBD and AD fusions in yeast; TCP4 and FBH1 in the bait vector pASGW-attR; growth on -LWH (for TCP4 also -LWH + 10 mM 3-aminotriazole) against -LW
[2] = molecular target: T2, YFP^n-mTCP4 (full-length mTCP4 fused to the N-terminal half of enhanced YFP) (Arabidopsis thaliana); assay: split reporter; BiFC with halves of enhanced YFP, co-expressed by agroinfiltration in N. benthamiana leaf epidermal cells; confocal imaging 2-3 days after infiltration; H2B-RFP as nuclear marker; positive when more than 70% of H2B-RFP positive cells showed YFP

Binder | binding [1] | binding [2]
GIGANTEA (GI), full length, Gal4 fusion for yeast two-hybrid (protein, UniProt Q9SQI2 1-1173) MASSSSSERWIDGLQFSSLLWPPPRDPQQHKDQVVAYVEYFGQFTSEQFPDDIAELVRHQYPSTEKRLLDDVLAMFVLHHPEHGHAVILPIISCLIDGSLVYSKEAHPFASFISLVCPSSENDYSEQWALACGEILRILTHYNRPIYKTEQQNGDTERNCLSKATTSGSPTSEPKAGSPTQHERKPLRPLSPWISDILLAAPLGIRSDYFRWCSGVMGKYAAGELKPPTIASRGSGKHPQLMPSTPRWAVANGAGVILSVCDDEVARYETATLTAVAVPALLLPPPTTSLDEHLVAGLPALEPYARLFHRYYAIATPSATQRLLLGLLEAPPSWAPDALDAAVQLVELLRAAEDYASGVRLPRNWMHLHFLRAIGIAMSMRAGVAADAAAALLFRILSQPALLFPPLSQVEGVEIQHAPIGGYSSNYRKQIEVPAAEATIEATAQGIASMLCAHGPEVEWRICTIWEAAYGLIPLNSSAVDLPEIIVATPLQPPILSWNLYIPLLKVLEYLPRGSPSEACLMKIFVATVETILSRTFPPESSRELTRKARSSFTTRSATKNLAMSELRAMVHALFLESCAGVELASRLLFVVLTVCVSHEAQSSGSKRPRSEYASTTENIEANQPVSNNQTANRKSRNVKGQGPVAAFDSYVLAAVCALACEVQLYPMISGGGNFSNSAVAGTITKPVKINGSSKEYGAGIDSAISHTRRILAILEALFSLKPSSVGTPWSYSSSEIVAAAMVAAHISELFRRSKALTHALSGLMRCKWDKEIHKRASSLYNLIDVHSKVVASIVDKAEPLEAYLKNTPVQKDSVTCLNWKQENTCASTTCFDTAVTSASRTEMNPRGNHKYARHSDEGSGRPSEKGIKDFLLDASDLANFLTADRLAGFYCGTQKLLRSVLAEKPELSFSVVSLLWHKLIAAPEIQPTAESTSAQQGWRQVVDALCNVVSATPAKAAAAVVLQAERELQPWIAKDDEEGQKMWKINQRIVKVLVELMRNHDRPESLVILASASDLLLRATDGMLVDGEACTLPQLELLEATARAIQPVLAWGPSGLAVVDGLSNLLKCRLPATIRCLSHPSAHVRALSTSVLRDIMNQSSIPIKVTPKLPTTEKNGMNSPSYRFFNAASIDWKADIQNCLNWEAHSLLSTTMPTQFLDTAARELGCTISLSQ | binds | 
TCP2, full length, fused to YFP^c (protein, UniProt Q93V43 1-365) MIGDLMKNNNNGDVVDNEVNNRLSRWHHNSSRIIRVSRASGGKDRHSKVLTSKGPRDRRVRLSVSTALQFYDLQDRLGYDQPSKAVEWLIKAAEDSISELPSLNNTHFPTDDENHQNQTLTTVAANSLSKSACSSNSDTSKNSSGLSLSRSELRDKARERARERTAKETKERDHNHTSFTDLLNSGSDPVNSNRQWMASAPSSSPMEYFSSGLILGSGQQTHFPISTNSHPFSSISDHHHHHPHHQHQEFSFVPDHLISPAESNGGAFNLDFNMSTPSGAGAAVSAASGGGFSGFNRGTLQSNSTNQHQSFLANLQRFPTSESGGGPQFLFGALPAENHHHNHQFQLYYENGCRNSSEHKGKGKN |  | binds
TCP3, full length, fused to YFP^c (protein, UniProt Q9MAH8 1-391) MAPDNDHFLDSPSPPLLEMRHHQSATENGGGCGEIVEVQGGHIVRSTGRKDRHSKVCTAKGPRDRRVRLSAPTAIQFYDVQDRLGFDRPSKAVDWLITKAKSAIDDLAQLPPWNPADTLRQHAAAAANAKPRKTKTLISPPPPQPEETEHHRIGEEEDNESSFLPASMDSDSIADTIKSFFPVASTQQSYHHQPPSRGNTQNQDLLRLSLQSFQNGPPFPNQTEPALFSGQSNNQLAFDSSTASWEQSHQSPEFGKIQRLVSWNNVGAAESAGSTGGFVFASPSSLHPVYSQSQLLSQRGPLQSINTPMIRAWFDPHHHHHHHQQSMTTDDLHHHHPYHIPPGIHQSAIPGIAFASSGEFSGFRIPARFQGEQEEHGGDNKPSSASSDSRH |  | binds
N-terminal half of GI (GI-N; amino acid residues 1-391), Gal4 fusion for yeast two-hybrid (domain or fragment, UniProt Q9SQI2 1-391) MASSSSSERWIDGLQFSSLLWPPPRDPQQHKDQVVAYVEYFGQFTSEQFPDDIAELVRHQYPSTEKRLLDDVLAMFVLHHPEHGHAVILPIISCLIDGSLVYSKEAHPFASFISLVCPSSENDYSEQWALACGEILRILTHYNRPIYKTEQQNGDTERNCLSKATTSGSPTSEPKAGSPTQHERKPLRPLSPWISDILLAAPLGIRSDYFRWCSGVMGKYAAGELKPPTIASRGSGKHPQLMPSTPRWAVANGAGVILSVCDDEVARYETATLTAVAVPALLLPPPTTSLDEHLVAGLPALEPYARLFHRYYAIATPSATQRLLLGLLEAPPSWAPDALDAAVQLVELLRAAEDYASGVRLPRNWMHLHFLRAIGIAMSMRAGVAADAAAA | binds | 
TCP5, full length, fused to YFP^c (protein, UniProt Q9FME3 1-360) MRSGECDEEEIQAKQERDQNQNHQVNLNHMLQQQQPSSVSSSRQWTSAFRNPRIVRVSRTFGGKDRHSKVCTVRGLRDRRIRLSVPTAIQLYDLQDRLGLSQPSKVIDWLLEAAKDDVDKLPPLQFPHGFNQMYPNLIFGNSGFGESPSSTTSTTFPGTNLGFLENWDLGGSSRTRARLTDTTTTQRESFDLDKGKWIKNDENSNQDHQGFNTNHQQQFPLTNPYNNTSAYYNLGHLQQSLDQSGNNVTVAISNVAANNNNNLNLHPPSSSAGDGSQLFFGPTPPAMSSLFPTYPSFLGASHHHHVVDGAGHLQLFSSNSNTASQQHMMPGNTSLIRPFHHLMSSNHDTDHHSSDNESDS |  | binds
TCP10, full length, fused to YFP^c (protein, UniProt O82277 1-361) MGLKGYSVGEGGGEIVEVQGGHIIRATGRKDRHSKVFTSKGPRDRRVRLSAHTAIQFYDVQDRLGYDRPSKAVDWLIKKAKTAIDKLELGETTTTTTRQEPVNTKPESPTLVFQRENNDQTQFVAANLDPEDAMKTFFPATTTTNGGGGTNINFQNYPHQDDNNMVSRTTTPPPNLSQDLGLSLHPFQGNNNTVVVPETNNFTTTHFDTFGRISGWNHHDLTMTSSSSSEHQQQEQEERSNGGFMVNHHPHHHHHQPSMMTLLNSQQQQVFLGGQQQQQQRGTLQSSLFPHSFRSWDHHQTTSDHHHHQNQASSMFASSSQYGSHGMMMMQGLSFPNTTRLLHGEEATQPNSSSSPPNSHL |  | binds
TCP13, full length, fused to YFP^c (protein, UniProt Q9S7W5 1-355) MNIVSWKDANDEVAGGATTRREREVKEDQEETEVRATSGKTVIKKQPTSISSSSSSWMKSKDPRIVRVSRAFGGKDRHSKVCTLRGLRDRRVRLSVPTAIQLYDLQERLGVDQPSKAVDWLLDAAKEEIDELPPLPISPENFSIFNHHQSFLNLGQRPGQDPTQLGFKINGCVQKSTTTSREENDREKGENDVVYTNNHHVGSYGTYHNLEHHHHHHQHLSLQADYHSHQLHSLVPFPSQILVCPMTTSPTTTTIQSLFPSSSSAGSGTMETLDPRQMVSHFQMPLMGNSSSSSSQNISTLYSLLHGSSSNNGGRDIDNRMSSVQFNRTNSTTTANMSRHLGSERCTSRGSDHHM |  | binds
TCP17, full length, fused to YFP^c (protein, UniProt Q9LEZ9 1-242) MGIKKEDQKSSLSLLTQRWNNPRIVRVSRAFGGKDRHSKVCTVRGLRDRRIRLSVMTAIQVYDLQERLGLSQPSKVIDWLLEVAKNDVDLLPPLQFPPGFHQLNPNLTGLGESFPGVFDLGRTQREALDLEKRKWVNLDHVFDHIDHHNHFSNSIQSNKLYFPTITSSSSSYHYNLGHLQQSLLDQSGNVTVAFSNNYNNNNLNPPAAETMSSLFPTRYPSFLGGGQLQLFSSTSSQPDHIE |  | binds
TCP24, full length, fused to YFP^c (protein, UniProt Q9C758 1-324) MEVDEDIELQKHQEQQSRKLQRFSEDNTGLMRNWNNPSSRIIRVSRASGGKDRHSKVLTSKGLRDRRIRLSVATAIQFYDLQDRLGFDQPSKAVEWLINAASDSITDLPLLNTNFDHLDQNQNQTKSACSSGTSESSLLSLSRTEIRGKARERARERTAKDRDKDLQNAHSSFTQLLTGGFDQQPSNRNWTGGSDCFNPVQLQIPNSSSQEPMNHPFSFVPDYNFGISSSSSAINGGYSSRGTLQSNSQSLFLNNNNNITQRSSISSSSSSSSPMDSQSISFFMATPPPLDHHNHQLPETFDGRLYLYYGEGNRSSDDKAKERR |  | binds
YFP^c-GI (full-length GI fused to the C-terminal half of enhanced YFP) (protein, UniProt Q9SQI2 1-1173) MASSSSSERWIDGLQFSSLLWPPPRDPQQHKDQVVAYVEYFGQFTSEQFPDDIAELVRHQYPSTEKRLLDDVLAMFVLHHPEHGHAVILPIISCLIDGSLVYSKEAHPFASFISLVCPSSENDYSEQWALACGEILRILTHYNRPIYKTEQQNGDTERNCLSKATTSGSPTSEPKAGSPTQHERKPLRPLSPWISDILLAAPLGIRSDYFRWCSGVMGKYAAGELKPPTIASRGSGKHPQLMPSTPRWAVANGAGVILSVCDDEVARYETATLTAVAVPALLLPPPTTSLDEHLVAGLPALEPYARLFHRYYAIATPSATQRLLLGLLEAPPSWAPDALDAAVQLVELLRAAEDYASGVRLPRNWMHLHFLRAIGIAMSMRAGVAADAAAALLFRILSQPALLFPPLSQVEGVEIQHAPIGGYSSNYRKQIEVPAAEATIEATAQGIASMLCAHGPEVEWRICTIWEAAYGLIPLNSSAVDLPEIIVATPLQPPILSWNLYIPLLKVLEYLPRGSPSEACLMKIFVATVETILSRTFPPESSRELTRKARSSFTTRSATKNLAMSELRAMVHALFLESCAGVELASRLLFVVLTVCVSHEAQSSGSKRPRSEYASTTENIEANQPVSNNQTANRKSRNVKGQGPVAAFDSYVLAAVCALACEVQLYPMISGGGNFSNSAVAGTITKPVKINGSSKEYGAGIDSAISHTRRILAILEALFSLKPSSVGTPWSYSSSEIVAAAMVAAHISELFRRSKALTHALSGLMRCKWDKEIHKRASSLYNLIDVHSKVVASIVDKAEPLEAYLKNTPVQKDSVTCLNWKQENTCASTTCFDTAVTSASRTEMNPRGNHKYARHSDEGSGRPSEKGIKDFLLDASDLANFLTADRLAGFYCGTQKLLRSVLAEKPELSFSVVSLLWHKLIAAPEIQPTAESTSAQQGWRQVVDALCNVVSATPAKAAAAVVLQAERELQPWIAKDDEEGQKMWKINQRIVKVLVELMRNHDRPESLVILASASDLLLRATDGMLVDGEACTLPQLELLEATARAIQPVLAWGPSGLAVVDGLSNLLKCRLPATIRCLSHPSAHVRALSTSVLRDIMNQSSIPIKVTPKLPTTEKNGMNSPSYRFFNAASIDWKADIQNCLNWEAHSLLSTTMPTQFLDTAARELGCTISLSQ |  | binds

— paper PMC5495492
